The list shows a part of the results. Residues, ends and D or L forms follow the SMILES beside them. *: point of attachment. Cbz = O=C(OCc1ccccc1)*
What was measured:
Assay in all cases: log2 fold change, soluble protein after heating vs DMSO (PISA); higher = thermal stabilisation; K562 cells, 10 uM, 30 min; active = over 0.2 and 3.5 SD of the protein, either way, in both replicates (recomputed)
erlotinib = compound: C#Cc1cccc(Nc2ncnc3cc(OCCOC)c(OCCOC)cc23)c1 [erlotinib]
Outline: (§1)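 Quantification of soluble protein used TMTpro 16plex LC-MS/MS, with channel sums equalised. Samples were the supernatant after 21,000xg for 90 min of pooled aliquots from K562 cells (2×10^6 cells/mL) treated with 10 μM compound for 30 min, heated for 3 min over 48°C-58°C, and extracted in PBS with 0.5% NP-40 at 4°C. Values, from duplicates, describe thermal stability against control samples on a log2 fold-change scale.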

Sequences of proteins named here, by UniProt entry; tags and fusion partners are left off. A change or cut given only in a name is not applied to a line headed by its entry.
UniProt Q86UX7, whole entry, looked up: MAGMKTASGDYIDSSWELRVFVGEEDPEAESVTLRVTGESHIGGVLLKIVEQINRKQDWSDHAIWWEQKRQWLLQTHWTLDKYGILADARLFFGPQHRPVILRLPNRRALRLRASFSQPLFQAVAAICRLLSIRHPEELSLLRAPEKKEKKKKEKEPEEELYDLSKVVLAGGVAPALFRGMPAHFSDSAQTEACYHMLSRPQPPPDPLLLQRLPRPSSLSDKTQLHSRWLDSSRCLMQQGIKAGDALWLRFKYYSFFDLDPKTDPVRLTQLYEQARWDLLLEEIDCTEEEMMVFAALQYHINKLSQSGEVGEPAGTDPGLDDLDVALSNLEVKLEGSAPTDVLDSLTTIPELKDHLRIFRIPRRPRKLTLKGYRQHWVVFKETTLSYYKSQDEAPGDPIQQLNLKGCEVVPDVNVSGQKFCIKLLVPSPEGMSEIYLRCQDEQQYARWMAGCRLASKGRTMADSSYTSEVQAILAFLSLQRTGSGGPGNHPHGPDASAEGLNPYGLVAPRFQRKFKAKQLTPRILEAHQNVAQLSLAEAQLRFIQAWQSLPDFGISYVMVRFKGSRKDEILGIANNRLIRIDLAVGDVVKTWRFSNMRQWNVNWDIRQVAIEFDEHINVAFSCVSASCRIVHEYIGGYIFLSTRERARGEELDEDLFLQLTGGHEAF
UniProt Q86UY5: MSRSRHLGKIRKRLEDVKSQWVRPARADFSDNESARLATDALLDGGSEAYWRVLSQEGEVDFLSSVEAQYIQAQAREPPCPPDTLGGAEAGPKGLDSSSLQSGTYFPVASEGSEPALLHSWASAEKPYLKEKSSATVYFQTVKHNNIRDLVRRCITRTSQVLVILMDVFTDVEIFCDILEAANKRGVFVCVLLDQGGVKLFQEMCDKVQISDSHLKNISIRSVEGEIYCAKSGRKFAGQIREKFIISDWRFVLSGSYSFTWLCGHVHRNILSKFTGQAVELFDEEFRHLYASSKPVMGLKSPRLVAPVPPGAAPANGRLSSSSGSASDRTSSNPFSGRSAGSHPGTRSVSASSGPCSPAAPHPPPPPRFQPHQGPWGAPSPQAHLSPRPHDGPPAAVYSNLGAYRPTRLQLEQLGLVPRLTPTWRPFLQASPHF
UniProt A2RU67: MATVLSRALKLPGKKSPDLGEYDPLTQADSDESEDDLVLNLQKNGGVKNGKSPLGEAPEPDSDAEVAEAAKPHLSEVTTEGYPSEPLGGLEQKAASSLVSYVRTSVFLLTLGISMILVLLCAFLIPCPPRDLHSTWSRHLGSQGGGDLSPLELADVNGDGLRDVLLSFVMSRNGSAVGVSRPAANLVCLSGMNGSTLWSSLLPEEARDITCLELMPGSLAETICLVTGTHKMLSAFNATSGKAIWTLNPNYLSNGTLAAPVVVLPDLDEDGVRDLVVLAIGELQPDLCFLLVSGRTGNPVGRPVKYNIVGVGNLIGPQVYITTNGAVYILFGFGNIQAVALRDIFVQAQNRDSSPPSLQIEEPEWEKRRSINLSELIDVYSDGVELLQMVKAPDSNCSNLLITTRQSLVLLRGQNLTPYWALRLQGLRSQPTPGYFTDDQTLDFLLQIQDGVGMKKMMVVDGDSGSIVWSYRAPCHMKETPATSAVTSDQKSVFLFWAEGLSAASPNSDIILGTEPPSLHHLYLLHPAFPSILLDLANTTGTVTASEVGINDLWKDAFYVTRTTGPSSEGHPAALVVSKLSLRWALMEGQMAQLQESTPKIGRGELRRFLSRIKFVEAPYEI
UniProt Q9NVK5: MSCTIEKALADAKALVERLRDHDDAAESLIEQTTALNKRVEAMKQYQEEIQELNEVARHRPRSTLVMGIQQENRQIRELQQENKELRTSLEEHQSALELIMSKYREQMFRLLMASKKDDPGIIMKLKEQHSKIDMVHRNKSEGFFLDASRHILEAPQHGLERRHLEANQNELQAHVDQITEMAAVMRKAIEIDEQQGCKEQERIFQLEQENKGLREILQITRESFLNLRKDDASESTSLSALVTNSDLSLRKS
UniProt Q9NRD1: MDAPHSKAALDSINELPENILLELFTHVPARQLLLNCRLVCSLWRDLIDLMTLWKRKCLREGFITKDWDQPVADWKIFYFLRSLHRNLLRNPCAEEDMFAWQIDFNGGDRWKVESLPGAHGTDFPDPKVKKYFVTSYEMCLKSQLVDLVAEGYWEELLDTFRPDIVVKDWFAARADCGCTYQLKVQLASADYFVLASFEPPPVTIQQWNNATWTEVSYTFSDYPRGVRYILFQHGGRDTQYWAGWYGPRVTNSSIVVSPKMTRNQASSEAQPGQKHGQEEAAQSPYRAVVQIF
UniProt Q9UKB1: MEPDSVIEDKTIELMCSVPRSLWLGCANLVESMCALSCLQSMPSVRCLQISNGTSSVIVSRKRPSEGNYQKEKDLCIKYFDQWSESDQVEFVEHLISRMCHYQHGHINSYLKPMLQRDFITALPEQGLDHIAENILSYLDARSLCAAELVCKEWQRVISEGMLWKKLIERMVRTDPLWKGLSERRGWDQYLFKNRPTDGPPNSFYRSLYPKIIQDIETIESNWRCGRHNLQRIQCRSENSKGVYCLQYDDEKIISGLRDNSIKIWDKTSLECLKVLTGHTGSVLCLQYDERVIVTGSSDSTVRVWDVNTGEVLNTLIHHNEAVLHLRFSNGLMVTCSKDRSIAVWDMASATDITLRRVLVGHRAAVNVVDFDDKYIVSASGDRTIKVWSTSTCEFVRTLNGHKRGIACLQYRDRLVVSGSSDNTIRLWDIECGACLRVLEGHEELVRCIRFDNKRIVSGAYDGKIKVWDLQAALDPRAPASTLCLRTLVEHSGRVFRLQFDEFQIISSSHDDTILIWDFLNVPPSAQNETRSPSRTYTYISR
UniProt Q96C11: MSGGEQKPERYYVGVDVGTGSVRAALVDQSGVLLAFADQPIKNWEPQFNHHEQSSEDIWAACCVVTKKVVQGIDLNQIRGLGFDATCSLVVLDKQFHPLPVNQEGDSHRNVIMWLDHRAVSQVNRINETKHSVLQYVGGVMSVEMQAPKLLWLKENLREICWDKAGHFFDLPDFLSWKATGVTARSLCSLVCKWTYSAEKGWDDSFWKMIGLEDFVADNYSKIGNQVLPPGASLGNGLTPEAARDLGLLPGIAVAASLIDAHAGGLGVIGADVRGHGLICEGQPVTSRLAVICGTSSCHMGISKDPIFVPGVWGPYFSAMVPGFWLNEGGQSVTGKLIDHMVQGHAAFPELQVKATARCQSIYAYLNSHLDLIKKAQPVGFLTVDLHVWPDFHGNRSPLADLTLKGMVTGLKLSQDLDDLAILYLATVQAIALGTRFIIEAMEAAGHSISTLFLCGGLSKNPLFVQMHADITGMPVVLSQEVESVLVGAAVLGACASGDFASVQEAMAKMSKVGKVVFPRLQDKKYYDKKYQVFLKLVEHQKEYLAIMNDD
UniProt Q96KR6: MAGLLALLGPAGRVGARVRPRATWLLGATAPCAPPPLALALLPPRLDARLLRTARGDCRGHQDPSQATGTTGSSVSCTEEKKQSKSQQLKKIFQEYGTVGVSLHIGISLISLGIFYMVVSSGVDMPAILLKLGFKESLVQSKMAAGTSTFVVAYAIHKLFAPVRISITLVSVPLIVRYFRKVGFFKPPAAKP
UniProt Q8TAV0: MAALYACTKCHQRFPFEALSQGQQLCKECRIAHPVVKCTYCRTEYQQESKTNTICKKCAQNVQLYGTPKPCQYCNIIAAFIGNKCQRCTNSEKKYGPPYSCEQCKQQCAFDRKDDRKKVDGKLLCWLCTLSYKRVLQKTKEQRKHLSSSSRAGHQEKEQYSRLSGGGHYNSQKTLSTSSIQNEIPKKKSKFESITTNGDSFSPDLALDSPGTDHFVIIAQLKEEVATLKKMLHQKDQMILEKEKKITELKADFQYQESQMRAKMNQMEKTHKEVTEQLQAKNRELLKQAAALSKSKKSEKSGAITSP
UniProt Q8NFG4: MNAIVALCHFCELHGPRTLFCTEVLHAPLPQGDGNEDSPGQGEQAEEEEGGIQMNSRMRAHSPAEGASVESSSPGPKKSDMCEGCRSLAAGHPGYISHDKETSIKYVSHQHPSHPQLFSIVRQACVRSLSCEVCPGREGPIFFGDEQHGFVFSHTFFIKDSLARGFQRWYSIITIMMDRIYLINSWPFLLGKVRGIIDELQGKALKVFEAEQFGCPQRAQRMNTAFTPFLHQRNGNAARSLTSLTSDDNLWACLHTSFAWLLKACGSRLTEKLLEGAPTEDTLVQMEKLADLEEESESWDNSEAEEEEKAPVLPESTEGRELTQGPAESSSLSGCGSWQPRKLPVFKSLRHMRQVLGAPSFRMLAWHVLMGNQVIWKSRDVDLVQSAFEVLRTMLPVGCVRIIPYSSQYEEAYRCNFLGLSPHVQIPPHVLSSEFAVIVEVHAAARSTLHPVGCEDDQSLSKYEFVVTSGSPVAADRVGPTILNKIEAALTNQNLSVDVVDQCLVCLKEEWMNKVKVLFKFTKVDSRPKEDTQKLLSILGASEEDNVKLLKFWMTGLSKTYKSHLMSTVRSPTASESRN
UniProt Q8TES7: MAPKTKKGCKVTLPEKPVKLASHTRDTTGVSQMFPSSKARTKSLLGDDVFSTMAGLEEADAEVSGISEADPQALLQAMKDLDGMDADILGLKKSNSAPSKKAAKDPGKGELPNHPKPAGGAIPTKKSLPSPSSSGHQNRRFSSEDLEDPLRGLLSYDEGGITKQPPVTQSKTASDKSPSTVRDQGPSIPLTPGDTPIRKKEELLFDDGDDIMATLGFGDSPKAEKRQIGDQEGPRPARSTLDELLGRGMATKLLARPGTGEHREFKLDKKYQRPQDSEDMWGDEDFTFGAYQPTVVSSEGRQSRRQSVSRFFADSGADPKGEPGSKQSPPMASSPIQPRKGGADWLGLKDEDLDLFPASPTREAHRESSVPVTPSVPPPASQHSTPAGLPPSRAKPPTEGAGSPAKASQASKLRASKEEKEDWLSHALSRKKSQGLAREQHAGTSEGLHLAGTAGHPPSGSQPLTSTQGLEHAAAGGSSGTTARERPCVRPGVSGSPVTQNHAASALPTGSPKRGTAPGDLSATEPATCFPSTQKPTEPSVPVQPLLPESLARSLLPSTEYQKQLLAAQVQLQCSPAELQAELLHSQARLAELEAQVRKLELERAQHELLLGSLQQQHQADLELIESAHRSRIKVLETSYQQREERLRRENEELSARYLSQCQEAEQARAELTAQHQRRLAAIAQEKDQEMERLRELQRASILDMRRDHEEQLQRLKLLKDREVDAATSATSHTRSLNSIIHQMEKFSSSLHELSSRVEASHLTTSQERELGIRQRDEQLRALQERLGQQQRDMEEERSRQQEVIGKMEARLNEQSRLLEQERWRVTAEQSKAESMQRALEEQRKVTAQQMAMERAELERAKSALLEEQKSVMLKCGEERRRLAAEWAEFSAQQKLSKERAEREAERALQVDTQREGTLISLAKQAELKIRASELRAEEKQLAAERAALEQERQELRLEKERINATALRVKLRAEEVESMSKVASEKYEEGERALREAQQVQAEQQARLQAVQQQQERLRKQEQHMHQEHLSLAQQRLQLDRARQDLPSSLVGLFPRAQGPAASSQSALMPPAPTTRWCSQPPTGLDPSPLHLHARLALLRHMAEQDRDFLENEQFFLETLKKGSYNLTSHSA
UniProt Q9H4M3: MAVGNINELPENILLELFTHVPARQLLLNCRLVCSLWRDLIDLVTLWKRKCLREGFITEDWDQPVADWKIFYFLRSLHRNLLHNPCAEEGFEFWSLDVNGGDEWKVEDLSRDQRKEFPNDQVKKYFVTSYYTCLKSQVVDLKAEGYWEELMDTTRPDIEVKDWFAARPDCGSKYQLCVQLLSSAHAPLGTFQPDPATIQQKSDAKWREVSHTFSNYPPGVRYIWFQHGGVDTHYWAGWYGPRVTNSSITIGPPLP
UniProt Q8N0W7: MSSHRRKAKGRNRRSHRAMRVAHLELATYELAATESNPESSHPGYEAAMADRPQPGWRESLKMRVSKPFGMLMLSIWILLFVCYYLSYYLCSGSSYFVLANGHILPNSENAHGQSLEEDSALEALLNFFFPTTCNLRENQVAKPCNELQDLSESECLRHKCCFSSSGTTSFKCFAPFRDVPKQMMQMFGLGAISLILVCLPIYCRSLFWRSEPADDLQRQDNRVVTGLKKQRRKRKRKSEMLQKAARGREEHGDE
UniProt P02679: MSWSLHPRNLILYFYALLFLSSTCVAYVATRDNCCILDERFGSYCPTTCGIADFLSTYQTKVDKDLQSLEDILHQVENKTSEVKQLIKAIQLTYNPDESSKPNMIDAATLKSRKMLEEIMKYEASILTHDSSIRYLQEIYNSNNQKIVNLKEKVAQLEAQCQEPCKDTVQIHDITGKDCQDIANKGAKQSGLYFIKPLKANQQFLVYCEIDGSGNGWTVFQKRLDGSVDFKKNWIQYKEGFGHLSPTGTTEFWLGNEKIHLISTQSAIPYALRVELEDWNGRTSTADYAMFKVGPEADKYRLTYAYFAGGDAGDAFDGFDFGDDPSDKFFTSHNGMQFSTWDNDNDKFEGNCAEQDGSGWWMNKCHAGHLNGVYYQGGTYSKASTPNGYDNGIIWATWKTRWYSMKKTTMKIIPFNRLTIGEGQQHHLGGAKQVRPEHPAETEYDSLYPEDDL

[1] = compound: C/C(=N\NC(=O)C1=CC(=CC=C1)S(=O)(=O)N2CCOCC2)/C3=C(C=CC(=C3)Cl)O
Outline: as §1

[2] = compound: C1=CC(=CC=C1C2=NC3=C(N2)C=C(C=C3)C(=O)N)OC4=CC=C(C=C4)Cl
Outline: as §1

[3] = compound: C1=CC2=C(C=CC(=C2)/C=C\3/C(=O)NC(=NCC4=CC=CS4)S3)N=C1
Outline: as §1

[4] = compound: C1=CC2=NC=CN=C2C=C1/C=C/3\C(=O)NC(=O)S3
Outline: as §1

[5] = compound: C1=CC=C(C=C1)C2=NC(=C(N2)C3=CC=NC=C3)C4=CC(=C(C=C4)Cl)O
Outline: as §1

[6] = compound: C1=CC=C2C(=C1)C3=NNC4=CC=CC(=C43)C2=O
Outline: as §1

[7] = compound: C1CCN(C1)C(=O)NC2=CC=CC(=C2)NC3=NC=C(C(=N3)NCCC4=CN=CN4)Br
Outline: as §1

[8] = compound: C1CN(CCC1(CC2=CC=C(C=C2)Cl)N)C3=NC=NC4=C3C=CN4
Outline: as §1

IRAK-1-4 Inhibitor I = compound: C1COCCN1CCN2C3=CC=CC=C3N=C2NC(=O)C4=CC(=CC=C4)[N+](=O)[O-] [IRAK-1-4 Inhibitor I]
Outline: as §1

ibrutinib = compound: C=CC(=O)N1CCC[C@@H](n2nc(-c3ccc(Oc4ccccc4)cc3)c3c(N)ncnc32)C1 [ibrutinib]
Outline: as §1

[9] = compound: CC(=O)c1cnc2ccc(-c3cc(Cl)c(O)c(Cl)c3)nc2c1N[C@H]1CC[C@H](CN(C)C)CC1
Outline: as §1

ralimetinib = compound: CC(C)(C)Cn1c(N)nc2ccc(-c3[nH]c(C(C)(C)C)nc3-c3ccc(F)cc3)nc21 [ralimetinib]
Outline: as §1

[10] = compound: CC(C)C1=C2N=C(C=C(N2N=C1)NCC3=CC=CC=C3)NCCCCCCN
Outline: as §1

[11] = compound: CC(C)C[C@@H](C=O)NC(=O)[C@H](CC(C)C)NC(=O)[C@H](CC(C)C)NC(=O)OCc1ccccc1
Outline: as §1

pinometostat = compound: CC(C)N(C[C@H]1O[C@@H](n2cnc3c(N)ncnc32)[C@H](O)[C@@H]1O)[C@H]1C[C@@H](CCc2nc3cc(C(C)(C)C)ccc3[nH]2)C1 [pinometostat]
Outline: as §1

[12] = compound: CC1=C(C(CC(=O)N1)C2=CC=C(C=C2)C(F)(F)F)C(=O)NC3=C(C=C4C(=C3)C=NN4)F
Outline: as §1

[13] = compound: CC1=C(C2=C(C=C1)C(=O)C3=CC=CC=C3N2CCCN)C
Outline: as §1

[14] = compound: C1=CC(=C(C=C1Cl)C2=NC3=NC=CN=C3C(=N2)NC4=CC=NC=C4)F
Outline: as §1

[15] = compound: CC(C)(O)CC(=O)NCCn1ccc2ncnc(Nc3ccc(Oc4cccc(C(F)(F)F)c4)c(Cl)c3)c21
Outline: as §1

Target | log2 fold change (erlotinib) | log2 fold change [1] | log2 fold change [2] | log2 fold change [3] | log2 fold change [4] | log2 fold change [5] | log2 fold change [6] | log2 fold change [7] | log2 fold change [8] | log2 fold change (IRAK-1-4 Inhibitor I) | log2 fold change (ibrutinib) | log2 fold change [9] | log2 fold change (ralimetinib) | log2 fold change [10] | log2 fold change [11] | log2 fold change (pinometostat) | log2 fold change [12] | log2 fold change [13] | log2 fold change [14] | log2 fold change [15]
FNBP1L (UniProt Q5T0N5) | inactive: -0.053 | inactive: -0.2 | inactive: -0.112 | inactive: 0.022 | inactive: -0.086 | inactive: -0.033 | inactive: 0.077 | inactive: -0.255 | inactive: -0.116 | inactive: 0.032 | inactive: 0.067 | inactive: 0.019 | inactive: -0.006 | inactive: 0.071 | inactive: 0.046 | inactive: -0.014 | inactive: 0.081 | inactive: 0.141 |  | 
FERMT3 (UniProt Q86UX7) | inactive: 0.019 | inactive: 0.076 | inactive: -0.003 | inactive: 0.028 | inactive: 0.02 | inactive: 0.011 | inactive: 0.008 | inactive: -0.006 | inactive: 0.012 | inactive: -0.019 | inactive: -0.036 | inactive: -0.039 | inactive: 0.01 | inactive: -0.091 | inactive: -0.022 | inactive: -0.002 |  | inactive: 0.003 | inactive: 0.091 | inactive: -0.048
FAM83A (UniProt Q86UY5) | inactive: 0.1 | inactive: 0.18 | inactive: 0.01 | inactive: 0.079 |  | inactive: 0.06 | inactive: -0.001 | inactive: 0.027 | inactive: -0.074 |  |  | inactive: -0.314 | inactive: -0.03 | inactive: -0.171 | inactive: 0.257 |  | inactive: -0.238 | inactive: -0.073 | inactive: -0.109 | inactive: -0.088
FAM234B (UniProt A2RU67) | inactive: -0.053 | inactive: -0.033 | inactive: -0.077 | inactive: -0.401 | inactive: 0.029 | inactive: 0.039 | inactive: 0.099 | inactive: 0.109 | inactive: -0.112 | inactive: 0.023 | inactive: 0.071 | inactive: -0.086 | inactive: 0 | inactive: 0.26 | inactive: -0.003 | inactive: 0.009 |  | inactive: 0.15 |  | 
FGFR1OP2 (UniProt Q9NVK5) | inactive: -0.04 | inactive: -0.008 | inactive: 0.103 | inactive: 0.057 | inactive: 0.066 |  | inactive: -0.039 | inactive: 0.033 | inactive: 0.003 | inactive: -0.016 | inactive: -0.022 | inactive: -0.046 |  | inactive: -0.068 |  | inactive: 0.1 | inactive: -0.034 | inactive: -0.068 | inactive: -0.105 | inactive: 0.178
FBXO6 (UniProt Q9NRD1) | inactive: -0.069 | inactive: 0.046 | inactive: 0.007 | inactive: 0.048 | inactive: 0.007 | inactive: 0.021 | inactive: 0.002 | inactive: -0.031 | inactive: 0 | inactive: -0.015 | inactive: 0.015 | inactive: -0.068 | inactive: 0.004 | active: 0.437 | inactive: -0.046 | inactive: -0.021 |  | inactive: 0.068 | inactive: 0.075 | inactive: -0.127
FBXW11 (UniProt Q9UKB1) | inactive: 0.036 | inactive: -0.211 | inactive: 0.11 | inactive: 0.148 |  | inactive: -0.046 | inactive: -0.005 | inactive: -0.018 | inactive: 0.147 | inactive: -0.074 |  | inactive: 0.079 | inactive: 0.082 | inactive: -0.093 | inactive: 0.14 | inactive: 0.138 |  | inactive: 0.001 |  | 
FGGY isoform 3 (UniProt Q96C11) | inactive: 0.011 | inactive: -0.13 | inactive: 0.026 | inactive: 0.193 | inactive: 0.031 | inactive: -0.039 | inactive: -0.169 | inactive: 0.101 | inactive: 0.119 | inactive: -0.102 | inactive: 0.296 | inactive: 0 | inactive: -0.011 | inactive: 0.111 | inactive: 0.078 | inactive: -0.142 |  | inactive: -0.075 | inactive: 0.039 | inactive: -0.097
FAM210B (UniProt Q96KR6) | inactive: 0.059 | inactive: -0.008 | inactive: 0.033 | inactive: -0.024 | inactive: 0.049 | inactive: 0.022 | inactive: 0.034 |  |  | inactive: 0.044 | inactive: 0.052 | inactive: -0.013 | inactive: -0.075 | inactive: 0.057 | inactive: 0.009 | inactive: -0.055 | inactive: -0.024 |  | inactive: -0.01 | inactive: 0.002
FBRSL1 (UniProt Q9HCM7) | inactive: 0.013 | inactive: 0.082 | inactive: 0.08 | inactive: -0.089 |  | inactive: 0.003 | inactive: 0.154 | inactive: -0.201 | inactive: 0.14 |  |  | inactive: 0.164 | inactive: -0.301 | inactive: 0.144 | inactive: 0.068 |  | inactive: -0.147 | inactive: -0.157 | inactive: -0.046 | inactive: -0.02
FAM76A isoform 3 (UniProt Q8TAV0) | inactive: 0.077 | inactive: -0.063 | inactive: 0.009 | inactive: 0.006 | inactive: -0.147 |  | inactive: 0.085 | inactive: 0.1 | inactive: 0.062 |  | inactive: -0.124 | inactive: 0.023 |  | inactive: -0.004 |  |  |  | inactive: 0.016 | inactive: 0.05 | inactive: -0.021
FLCN (UniProt Q8NFG4) | inactive: 0.24 | inactive: -0.013 | inactive: 0.338 | inactive: 0.034 |  | inactive: -0.21 | inactive: -0.053 | inactive: -0.069 | inactive: -0.038 | inactive: 0.108 |  | inactive: 0.067 | inactive: -0.189 | inactive: 0.033 | inactive: 0.257 | inactive: 0.013 | inactive: 0.082 | inactive: 0.081 | inactive: -0.079 | inactive: -0.179
FEN1 (UniProt P39748) | inactive: 0.126 | inactive: 0.098 | inactive: 0.026 | inactive: 0.172 | inactive: 0.003 | inactive: 0.118 | inactive: 0.026 | inactive: 0.007 | inactive: -0.068 | inactive: -0.071 | inactive: -0.016 | inactive: -0.116 | inactive: -0.008 | inactive: -0.393 | inactive: 0.039 | inactive: -0.03 |  | inactive: -0.016 | inactive: 0.091 | inactive: -0.368
FAT2 (UniProt Q9NYQ8) | inactive: 0.115 |  | inactive: -0.098 |  | inactive: 0.096 | inactive: 0 |  | inactive: -0.166 | inactive: 0.186 | inactive: 0.103 | inactive: 0.107 |  | inactive: 0.182 | inactive: -0.002 | inactive: 0.225 | inactive: 0.051 |  | inactive: 0.132 | inactive: 0.26 | inactive: -0.149
FAT4 (UniProt Q6V0I7) |  | inactive: -0.057 |  | inactive: 0.142 |  | inactive: -0.292 | inactive: -0.055 | inactive: 0.068 | inactive: 0.033 |  |  | inactive: 0.002 | inactive: -0.295 |  | inactive: 0.291 |  | inactive: 0.141 | inactive: -0.383 |  | 
FBRS (UniProt J3KNZ9) |  | inactive: 0.026 |  | inactive: -0.101 |  |  | inactive: 0.178 |  |  | inactive: 0.055 |  | inactive: -0.207 |  |  |  | inactive: 0.235 | inactive: 0.052 |  | inactive: -0.098 | inactive: 0.161
FLII isoform 2 (UniProt Q13045) |  | inactive: 0.043 |  | inactive: -0.096 |  | inactive: 0.101 | inactive: 0.032 | inactive: -0.333 | inactive: -0.088 |  |  | inactive: 0.01 | inactive: -0.106 |  | inactive: -0.134 |  |  | inactive: 0.035 | inactive: 0.131 | inactive: -0.046
FBF1 isoform 6 (UniProt Q8TES7) |  | inactive: -0.068 |  | inactive: 0.076 |  |  | inactive: 0.095 |  |  | inactive: -0.054 |  | inactive: -0.052 |  |  |  | inactive: 0.138 | inactive: -0.093 |  |  | 
FBXO44 (UniProt Q9H4M3) |  |  |  |  | inactive: 0.037 | inactive: 0.128 |  |  |  |  | inactive: 0.013 |  | inactive: 0.113 |  | inactive: 0.079 |  | inactive: -0.303 |  |  | 
FMR1NB (UniProt Q8N0W7) |  | inactive: -0.069 |  | inactive: 0.031 |  |  | inactive: -0.095 |  |  |  |  | inactive: -0.075 |  |  |  |  |  |  | inactive: -0.3 | inactive: 0.278
FGG (UniProt P02679) |  |  |  |  |  | inactive: -0.05 |  |  |  |  |  |  | inactive: -0.048 |  | inactive: 0.231 |  |  |  |  | 

Some entries already given, limited to log2 fold change [1], log2 fold change [7] and log2 fold change (ibrutinib):
Target | log2 fold change [1] | log2 fold change [7] | log2 fold change (ibrutinib)
FBXO6 (UniProt Q9NRD1) | inactive: 0.046 | inactive: -0.031 | inactive: 0.015
FBXW11 (UniProt Q9UKB1) | inactive: -0.211 | inactive: -0.018 | 
